Data as given in PubChem BioAssay AID1508597 (Cure First, 2020)
Shown is an unselected part of the about 2,100 reagents, under one of the conditions tested. 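Calls flag viability under 80% in either arm, not effects specific to rucaparib; the reference for percent is not stated.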 Some reagents were tested in more than one well and are listed for each. Not stated in the record: the 100% reference.

- Assay: 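Genes whose silencing sensitises or protects ovarian cancer cells against rucaparib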 (primary screen)
- System: human ovarian carcinoma lines grown from tumours: OCI-P5x (papillary serous) and OCI-C5x (clear cell)
- Reagents: siRNA pool against human genes, 1.25 pmol siRNA per well
- Timing: 72 h or 96 h, depending on the cell culture
- Challenge: rucaparib 20 µM (about IC30) or vehicle, present until read-out
- Rucaparib or vehicle: Rucaparib
- Cell line: OCI-P5x (serous)
- Measurement: 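ATP luminescence measured at 72 or 96 h according to the culture, then normalised and expressed as percent viability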
- Scale: viability, normalised: higher = more viable cells remaining
- Rule for the call: 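a well counts as a hit if its normalised viability is under 80 percent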
- Meaning of the calls: active = viability under 80%; inactive = viability 80% or more

gene knocked down	technical replicate	viability, normalised (%)	call
MAST3 (GeneID 23031)	1	67.2	active
MAST3 (GeneID 23031)	2	79.9	active
MAST3 (GeneID 23031)	3	79.3	active
NFAM1 (GeneID 150372)	1	54	active
NFAM1 (GeneID 150372)	2	60.4	active
NFAM1 (GeneID 150372)	3	60	active
FMR1 (GeneID 2332)	1	85.1	inactive
FMR1 (GeneID 2332)	2	69.1	active
FMR1 (GeneID 2332)	3	74.9	active
POLR2K (GeneID 5440)	1	114	inactive
POLR2K (GeneID 5440)	2	103	inactive
POLR2K (GeneID 5440)	3	89.2	inactive
BUB1B (GeneID 701)	1	39.3	active
BUB1B (GeneID 701)	1	74.8	active
BUB1B (GeneID 701)	1	148	inactive
BUB1B (GeneID 701)	2	49.1	active
BUB1B (GeneID 701)	2	152	inactive
BUB1B (GeneID 701)	2	68.5	active
BUB1B (GeneID 701)	3	79.7	active
BUB1B (GeneID 701)	3	112	inactive
BUB1B (GeneID 701)	3	45.9	active
XYLB (GeneID 9942)	1	87.8	inactive
XYLB (GeneID 9942)	2	112	inactive
XYLB (GeneID 9942)	3	93.5	inactive

An excerpt of the results above, for reference:
gene knocked down	technical replicate	viability, normalised (%)	call
BUB1B (GeneID 701)	1	74.8	active
BUB1B (GeneID 701)	1	148	inactive
BUB1B (GeneID 701)	2	49.1	active
